# Results are given in words; binding and its absence hold for the method and conditions named. Some binding calls cover weakened binding; strength is not graded here.
# Target: ninjurin-1 (NINJ1) (mouse (endogenous in primary mouse macrophages)) (UniProt O70131)
# Assay: native gel or EMSA
binder,measurement,value
"ninjurin-1 (NINJ1) (protein, UniProt O70131 1-152) MESGTEEYELNGDLRPGSPGSPDALPPRWGLRNRPINVNHYANKKSAAESMLDIALLMANASQLKAVVEQGNDFAFFVPLVVLISISLVLQIGVGVLLIFLVKYDLNNPAKHAKLDFLNNLATGLVFIIVVVNIFITAFGVQKPVMDVAPRQ",binding,binds

# Source: paper doi:10.1101/2024.10.23.619800
